The values below come from patent US20090092971A1.

Amino acid sequences for entries named in this document (tags omitted). Residues count along the entry.
UniProt P61586, residues 1-190: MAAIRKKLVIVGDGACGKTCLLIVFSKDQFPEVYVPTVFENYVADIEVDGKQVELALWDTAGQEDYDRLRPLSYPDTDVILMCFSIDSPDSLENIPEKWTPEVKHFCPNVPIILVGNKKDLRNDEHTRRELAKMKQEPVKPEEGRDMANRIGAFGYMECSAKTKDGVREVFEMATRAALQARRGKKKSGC

No constants are given. Whether binding was seen depends on the method and setting. Binding seen in cells or lysates may run through a third protein. Some entries that bind do so weakly or less than the wild type.

The assay addresses active RhoA (UniProt P61586). Kind of assay: pull-down from cell extracts with GST-Rhotekin-RBD, western blot with a RhoA-specific antibody. In general terms: Immunoblotting shows a protein as a band on a membrane.

With “GST-Rhotekin-RBD (Rho-binding domain) (from UniProt Q9BST9 7-89)”, the binding entry is reported as “binds”.
